Measurements reported in publication PMC6964674.
Results are given in words; binding and its absence hold for the method and conditions named. In cells and extracts the contact can be indirect.

Target: SOX9 (human (endogenous in MCF-7 and T47D)), P48436
Test: co-IP; endogenous proteins; lysates of TAMR MCF-7 (and TAMR T47D) cells precipitated with anti-SOX9 and protein G magnetic beads overnight, blotted for SIRT1, HDAC4 or HDAC5
Conditions: remark: other sources report otherwise

B1: Sirtuin 1 (SIRT1), Q96EB6 1-747 (enzyme)
chain: MADEAALALQPGGSPSAAGADREAASSPAGEPLRKRPRRDGPGLERSPGEPGGAAPEREVPAAARGCPGAAAAALWREAEAEAAAAGGEQEAQATAAAGEGDNGPGLQGPSREPPLADNLYDEDDDDEGEEEEEAAAAAIGYRDNLLFGDEIITNGFHSCESDEEDRASHASSSDWTPRPRIGPYTFVQQHLMIGTDPRTILKDLLPETIPPPELDDMTLWQIVINILSEPPKRKKRKDINTIEDAVKLLQECKKIIVLTGAGVSVSCGIPDFRSRDGIYARLAVDFPDLPDPQAMFDIEYFRKDPRPFFKFAKEIYPGQFQPSLCHKFIALSDKEGKLLRNYTQNIDTLEQVAGIQRIIQCHGSFATASCLICKYKVDCEAVRGDIFNQVVPRCPRCPADEPLAIMKPEIVFFGENLPEQFHRAMKYDKDEVDLLIVIGSSLKVRPVALIPSSIPHEVPQILINREPLPHLHFDVELLGDCDVIINELCHRLGGEYAKLCCNPVKLSEITEKPPRTQKELAYLSELPPTPLHVSEDSSSPERTSPPDSSVIVTLLDQAAKSNDDLDVSESKGCMEEKPQEVQTSRNVESIAEQMENPDLKNVGSSTGEKNERTSVAGTVRKCWPNRVAKEQISRRLDGNQYLFLPPNRYIFHGAEVYSDSEDDVLSSSSCGSNSDSGTCQSPSLEEPMEDESEIEEFYNGLEDEPDVPERAGGAGFGTDGDDQEAINEAISVKQEVTDMNYPSNKS
- binding: no binding
